Consider one molecule from PMC9547204.

The chains behind the UniProt entries cited, without tags or fusion partners. Where a name states a change or a piece, a line headed by the entry shows the natural chain unless it says otherwise.
UniProt P63044: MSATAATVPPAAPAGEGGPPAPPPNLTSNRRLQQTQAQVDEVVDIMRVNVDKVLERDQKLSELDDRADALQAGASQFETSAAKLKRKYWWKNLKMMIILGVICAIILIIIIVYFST
UniProt P70452: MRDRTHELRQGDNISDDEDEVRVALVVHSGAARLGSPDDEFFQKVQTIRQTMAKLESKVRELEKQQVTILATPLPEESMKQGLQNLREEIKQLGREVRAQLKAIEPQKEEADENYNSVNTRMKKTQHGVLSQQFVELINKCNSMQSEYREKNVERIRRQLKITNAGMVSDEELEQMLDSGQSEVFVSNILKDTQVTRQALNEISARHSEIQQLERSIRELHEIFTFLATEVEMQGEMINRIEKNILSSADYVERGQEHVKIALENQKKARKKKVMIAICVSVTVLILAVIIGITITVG

These are yes or no findings as the source states them, for the method shown. Some entries that bind do so weakly or less than the wild type. Sequences can lack the tags named with a protein.

The target of test [1] is VAMP2 (full-length v-SNARE) on liposomes (UniProt P63044). Nature of the test: liposome co-flotation; MBP-tagged peptide (5 μM) incubated 1 h at 4 °C with SNARE liposomes (5 μM SNAREs, 100% phosphatidylcholine) or protein-free liposomes; Nycodenz gradient flotation; floated liposomes analysed by SDS-PAGE, Coomassie blue; both purified.
Test [2] has as its target GLUT4 exocytic t-SNAREs (syntaxin-4 and His6-tagged SNAP-23) on liposomes (UniProt P70452). Described as above.

With LTQLMKKMPHFRKQISKQVVHLNLA (domain or fragment) [MBP-tagged SLP (aa. 327–351 of Munc18c)], the binding result in test [1] was “no binding (tested: 5 μM SNAREs and 5 μM MBP-tagged peptide)”; in test [2], “binds”.
